Measured values as given in patent US20050089473A1, “Potassium channel mediated delivery of agents through the blood-brain barrier” (Cedars-Sinai Medical Center, priority 2003, published 2005).
Counter-ions that a name gives are not always drawn. For part of these data: At least one read-out could not be matched to a standard name with certainty. For part of these data: For at least one compound, name, drawing or mass did not settle the structure. Ends that are not written are not given here.

Experiments:
intracerebral RG2 tumors = assay: In vivo BTB permeability (Ki by quantitative autoradiography) in RG2 tumor-bearing rats; set-up: species or system rat; details: for Duration of sustained Ki increase: i.c. infusion for 15, 30, 60 min, [14C]-AIB
GBM xenograft = assay: In vivo BTB permeability (Ki by QAR) in GBM-xenograft nude rat model; details: i.v. MS 60 μg/kg/min for 15 min
Procedure: All animal experiments were conducted in accordance with policies set by the Institutional Animal Care and Usage Committee and NIH guidelines. A rat syngeneic tumor model was prepared using female Wistar rats and a human-tumor xenograft model in athymic nude rats weighing 180-200 g were prepared for the BBB/BTB permeability studies. Although brain tumor blood vessel development is rapid in rats compared to humans, this variable should not affect the findings or conclusions because the study analyzes the response of blood vessels, regardless of how rapidly they developed, to vasomodulators. The optimum number of tumor cells and incubation period for in vivo tumor growth was determined in separate experiments. Rat glioma (RG2) cells (1×10^5) in 5 μl of medium with 1.2% methylcellulose were injected into the basal ganglia of Wistar rats, while nude rats were injected with glioblastoma multiforme (GBM) primary cells (5×10^5). The coordinates were 5-mm lateral to the bregma and 4.5 mm deep to the basal ganglia. […]
The unilateral transfer constant, Ki (μl/g/min), which is an initial rate for blood-to-brain transfer of a radiotracer, was calculated as described by Ohno et al. (Ohno, K., Pettigrew, K. O., and Rapsport, S. T. Lower limits of cerebrovascular permeability to […] in the conscious rat. Am. J. Physiol., 253: H299-H307, 1978). […]

brain tumor capillaries = details: cited from earlier work
human gliomas = details: intracarotid infusion; cited from earlier work

Row | Compound | Ki for [14C]-AIB in the tumor center (intracerebral RG2 tumors; i.c. infusion 15 min, MS 30 μg/kg/min, glibenclamide 5 μg/kg/min) [µL/g/min] | Mean Ki for [14C]-AIB after i.v. infusion (GBM xenograft) | Duration of sustained Ki increase (intracerebral RG2 tumors) | Sustaining of initial Ki increase on 30 min or 60 min infusion (intracerebral RG2 tumors; i.c.) | Duration of effect on permeability (brain tumor capillaries; in vivo) [min] | Time tumor capillaries are refractory after administration (brain tumor capillaries; in vivo) | Increase of permeability in brain tumor capillaries (brain tumor capillaries; intracarotid infusion) | Ki changes in human gliomas (human gliomas)
1 | Nc1cc(N2CCCCC2)nc(N)[n+]1OS(=O)(=O)[O-] [MS, minoxidil sulfate] | 32 ± 5 | significantly increased |  |  |  |  |  | 
2 | O=c1[nH]c2cc(C(F)(F)F)ccc2n1-c1cc(C(F)(F)F)ccc1O [NS-1619, 1,3-dihydro-1-[2-hydroxy-5-(trifluoromethyl)phenyl]-5-(trifluoromethyl)-2H-benzimidazol-2-one] |  |  | up to 60 min |  |  |  |  | 
3 | RPPGFSPFR [BK] |  |  | 15 to 20 min | failed to sustain | 20 | up to 60 min | 2- to 12 fold | 2% to 58
